Results reported in PMC12370185.
This is one part of the list. At the low end of the ranking, values are background and their order means little.

test system: c-MYC + MAX + histone octamer; assay: Pioneer-seq (competitive nucleosome EMSA with sequencing); conditions: 10 mM Tris-Cl pH 7.5, 50 mM NaCl, 1 mM DTT, 0.25 mg/ml BSA, 2 mM MgCl2, 0.025% Nonidet P-40, 5% glycerol; 28 nM nucleosome library; 10 min on ice then 30 min …; high values mean tight binding; double strand, one strand shown

| Sequence | binding signal (log2 relative supershift) |
| --- | --- |
| GATGGACCCTATACGCGGCCCACAGGACTGGAGCCATCCCCAAGGTGAGTGTCAGGATGTTTTGAAACTGGGACACACTGTACAGGGGTGAACAAAGGAATCTGCTTTTCAATACCACACTGCCTGCTGCAACCAAATGTCACTGCAGGGCTTAACAGTGAGTAAATGCTGTGTGTGTAAATGCTTCTTCTATGTTTAAAAAACAGGAAATGCCAGTCGGATAGTGTTCC | -0.0712 |
| GATGGACCCTATACGCGGCCCTAGTAGCTGGGAGTTCCCTCTCTGGAGGCCTGTTCCCATTTCTCCAGAGACAATGCTGCATCACAATGTTCCAGATCTTTCACAGGTCATTGACAGGCATCCTATAGGACTTCCCCCCAATACCCCCACCCCGAGAACTCTTTCAGTGGGTTCTCCAGTGACTTAGAAACAAATTTTTTCCTTGGTGGGTGCCAGTCGGATAGTGTTCC | -0.16 |
| GATGGACCCTATACGCGGCGCCGTTGTCTTCTTATGCAAGAATAAGGTACGTCTTTCCATCCACTCACGTCTATTTAATTTGACTTTGCATTACACAGAAAGCTGGTCTTGGTCTGTCTACCTCGGCATCTAGTTGTCCTCACTGCCCCCTAGCCGACCCCACCCCATCTGACTGACTACCCCATCACAGAGTACTTTTATTTACGTTTTTGCCAGTCGGATAGTGTTCC | -0.23 |
| GATGGACCCTATACGCGGCCTCCTAAGAGGCTTCTCATAGCAAACTCCCCCTCCTTCCGCTGAGAGGGTTTGATGGCAGGCAACAGATGACTTAGGACTCCTCTAATGGTCTTTAGGAACAGGAAGGCACCACCACCATTATCATGCAACATTGTTCTGGAAGTGCAAGCCAATGCAATTAGATAAGGAGAAAAATAAGAGGTAAATGTATGCCAGTCGGATAGTGTTCC | -0.522 |
| GATGGACCCTATACGCGGCAGAATTTCAGGACAATGACTGCAGAACATTAAACTAAGCATGGGTCCTTCTGAGTACTGGGCCCTGTGTGACTGCAGAGGCCTCACACTCATGAAGCTGGCCCTGCATTCATGTGGAAATGTGTAAAAAATAGATATTGAAGTCGGGAGAGCTGGTGAAAGGTCATTTTTGGAGATGTAGGCTTGGGAATTTGCCAGTCGGATAGTGTTCC | -0.224 |
| GATGGACCCTATACGCGGCAAGAATAGATGTTCTGGTAAAGGTCCCTGAGAGACACTAAGGTTGAATCTTGCTTGGGAGACATCCTGTGTATGTGCAGCAGATGGCAGTCTGCATTGGAATGGATCACAAGTCCAGTTTGTGCCACTTTTGTTCCGCTGTATGGTATGGTAAATTACAACCAGGGGGGCATAACCAGTTACAGCACTGCCTGCCAGTCGGATAGTGTTCC | -0.0284 |
| GATGGACCCTATACGCGGCTCCTACAATCAGTGTGAACATGGGCAACTCAGAAAATTTCTAATTAATTCATCAAATACCTTTTAAGGACCTATTGCGTCTAAGGTTCTGTGCTAGGCTGTAAGGCTCAATGTCTTACATTGTAATGCAGGGACAATACCAACTATGGCAGAGAGTTGTGATGATCAAAGTGGGCAAAGATTACAGATTATTGCCAGTCGGATAGTGTTCC | -0.191 |
| GATGGACCCTATACGCGGCTTGTTGTTTGTACCTTTAAGTCCTATCCTGTATTTATGGATGAAATGATGTCATGTCTGAGATTTGCTTCACAATAATGCAGTAGTGGGCAAAGAAGGGTGGAAGTGCAGATGACACGCAATAGGCTGTGTGCTGGTTAATTTTGAGGGTGGTTGATAGATATGTGTGGCTTATTGTACAGTTCCCTTTTTTGCCAGTCGGATAGTGTTCC | -0.145 |
| GATGGACCCTATACGCGGCGATACCACAAAAAGCACAGTTTCATAGGTCAGTTTAATTCTATAGCAGTCTTTTTTGTCAGCATAGCTGGCGATTCCATCTGTTTTAATTTAAGATTCACCCCAGCCATGCCTCTGTAGCAGGTGACACGTGCACACACACACACACCCCCACACCCACACACTGTTTCCTTATGTAACATACATGATGTATGCCAGTCGGATAGTGTTCC | -0.0566 |
| GATGGACCCTATACGCGGCAGACCAGAACTGAATGAAGTGAAAACATTTTCAAATGCAAGTGGCAGGCAAACTGCCCCACCCTATCCTGGAAGACAATACAAAGAGGGATGGGGGAGAGAAGAAAATAAGTGATTCTCCTACACACCCAGCCCATGCCATGCTAATCCCTTTTTGAGGACCACTGGTTTTAAACAAACTCTCTTTTGCTGTGCCAGTCGGATAGTGTTCC | -0.315 |
| GATGGACCCTATACGCGGCGCACTGTAGCTGTCGACTTTGTTTCAGACACCAGCCTTCCCCCACACTTCTGCATGACCCAGGTCACTATGAGACACCCAGACGTGTTGATGACAGTGACATTTGTCCTAGAGTGACCACACTGATCCTTTCTAGCACTGTGAAGAGTGTGCAGCTTCCTCTGAACCAAGGTTTCCAAAAGGTTTTGATATTGCCAGTCGGATAGTGTTCC | -0.0793 |
